This note sets out measurements from publication PMC9075623.

These are yes or no findings as the source states them, for the method shown. In cells and extracts the contact can be indirect. Binding calls can cover weak binding; strength is not graded here. Sequences can lack the tags named with a protein.

In the assay the target is V5-tagged full-length human TSPO^A147T (A147T polymorphism variant) (human). Put plainly: co-IP; U87MG cells overexpressing V5-tagged TSPO^WT, TSPO^A147T or pcDNA together with the Myc-tagged partner; IP with V5 antibody, immunoblot for myc and V5. For orientation: Immunoblotting shows a protein as a band on a membrane.

B1: Myc-tagged 14-3-3 protein subunit theta (YWHAQ) (protein, UniProt P27348 1-245)
chain: MEKTELIQKAKLAEQAERYDDMATCMKAVTEQGAELSNEERNLLSVAYKNVVGGRRSAWRVISSIEQKTDTSDKKLQLIKDYREKVESELRSICTTVLELLDKYLIANATNPESKVFYLKMKGDYFRYLAEVACGDDRKQTIDNSQGAYQEAFDISKKEMQPTHPIRLGLALNFSVFYYEILNNPELACTLAKTAFDEAIAELDTLNEDSYKDSTLIMQLLRDNLTLWTSDSAGEECDAAEGAEN
Regarding B1, the binding result is given as “binds”.

B2: Myc-tagged 14-3-3 protein subunit eta (YWHAH) (protein, UniProt Q04917 1-246)
chain: MGDREQLLQRARLAEQAERYDDMASAMKAVTELNEPLSNEDRNLLSVAYKNVVGARRSSWRVISSIEQKTMADGNEKKLEKVKAYREKIEKELETVCNDVLSLLDKFLIKNCNDFQYESKVFYLKMKGDYYRYLAEVASGEKKNSVVEASEAAYKEAFEISKEQMQPTHPIRLGLALNFSVFYYEIQNAPEQACLLAKQAFDDAIAELDTLNEDSYKDSTLIMQLLRDNLTLWTSDQQDEEAGEGN
For the molecule B2, the binding result is listed as “no binding”.
